The list shows a part of the results. The main result of the screen is listed elsewhere. These columns were measured beside it and carry no call. Most of these compounds were active or inconclusive in the main read-out, so they are no random draw. The note in brackets gives the kind of curve behind each potency; many fits are weak.
Experiment: qHTS Assay for Modulators of Lamin A Splicing
Conditions: HeLa LMNA splicing GFP/RFP minigene ratio, 48 h
Procedure, shortened: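 Read-out is the ratio of GFP to DsRed2 object intensity, acquired by 488 nm laser-scanning cytometry on HeLa lamin A-EGFP minigene reporter cells. Compound incubation 48 hrs at 37 °C in Opti-MEM with 2% FBS; DMSO 0.5% final.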

[1] = measured here: GFP splicing reporter channel
[2] = measured here: RFP viability control channel

Structure (SMILES) | AC50 [1] | AC50 [2]
O=C(CNc1ccccc1Cl)N/N=C1\CCCc2ccccc21 | 22.4 µM [falling, single point] | 35.5 µM [falling, partial curve, poor fit]
O=C(C1CCCN(S(=O)(=O)c2ccccc2[N+](=O)[O-])C1)N1CCN(c2ccccc2)CC1 (stereo unspecified) |  | 3.55 µM [rising, partial curve, poor fit]
CCc1nnc(NC(=O)Cc2c[nH]c3ccccc23)s1 |  | 0.501 µM [falling, full curve, poor fit]
CNc1nc(-c2ccccc2)[n+](-c2ccc(C)cc2)s1 |  | 20 µM [rising, single point]
O=[N+]([O-])c1ccc(Nc2nc(N/N=C/c3cccc(F)c3)nc(N3CCCC3)n2)cc1 |  | 1.41 µM [rising, partial curve]
Cc1ccc(C)n1-c1ccc(N2CCOCC2)nc1 | 35.5 µM [falling, single point] | 35.5 µM [falling, single point]
O=S(=O)(Nc1ccccn1)c1ccc(Oc2ccccc2)cc1 | 1.78 µM [rising, partial curve, poor fit] | 3.55 µM [rising, single point]
CN(Cc1ccccc1)CC(O)COc1ccc(CNCCc2ccncc2)cc1 (stereo unspecified) | 17.8 µM [falling, partial curve, poor fit] | 0.794 µM [falling, partial curve, poor fit]
Cc1ccc(-c2cc3cccc[n+]3cc2-c2ccc(C)cc2)cc1 | 5.01 µM [rising, partial curve] | 6.31 µM [rising, full curve]
CCn1c(COc2cccc(OC)c2)nnc1SCC(=O)Nc1cc(OC)ccc1OC |  | 15.8 µM [rising, single point]
CSc1ncc(C(=O)Nc2cc(C)cc(C)c2)c(-c2ccccc2)n1 | 0.0631 µM [falling, full curve] | 
Cn1/c(=N/N=C/c2ccccn2)sc2ccccc21 | 7.94 µM [falling, partial curve, poor fit] | 
COc1ccc(OC)c(CCNC(=O)c2c(C)oc3ncn(CC(C)C)c(=O)c23)c1 |  | 25.1 µM [rising, partial curve, poor fit]
O=C(CSCc1ccccc1)N1CCN(c2ccccc2)CC1 | 4.47 µM [rising, full curve, poor fit] | 
COc1ccc2[nH]c3c(=O)n4c(nc3c2c1)SCCC4 | 3.55 µM [falling, single point] | 
CCOC(=O)COc1ccccc1/C=C1/NC(=O)NC1=O |  | 4.47 µM [falling, partial curve]
COc1ccc(C(=O)Nc2nnc(-c3ccccc3)o2)cc1OC | 35.5 µM [rising, single point] | 31.6 µM [rising, single point]
Cc1ccc(CS/C(Nc2ccccc2C)=C(\C#N)C(=O)NCc2ccco2)c(C)c1 | 15.8 µM [rising, partial curve] | 17.8 µM [rising, single point]
COc1ccc(CCNC(=O)c2ccc(=O)[nH]c2)cc1 |  | 3.16 µM [falling, partial curve, poor fit]
O=S(=O)(c1ccc2nc(-c3ccccc3)[nH]c2c1)N1CCN(c2ccc(Cl)cc2)CC1 | 8.91 µM [rising, partial curve, poor fit] | 5.01 µM [rising, partial curve, poor fit]
CCn1c(SCC(=O)Nc2nc(-c3ccccc3)cs2)nnc1-c1ccccc1O | 7.08 µM [rising, full curve] | 4.47 µM [rising, full curve]
O=C(Cn1cc(S(=O)(=O)Cc2cccc(Cl)c2)c2ccccc21)Nc1ccccc1C(F)(F)F | 31.6 µM [falling, partial curve] | 10 µM [falling, partial curve]
O=C1/C(=C\c2ccco2)SC(=S)N1Cc1ccccc1 |  | 10 µM [falling, single point]
CCn1c(CN2CCN(c3cccc(C)c3C)CC2)n[nH]c1=S | 3.98 µM [rising, partial curve] | 20 µM [rising, single point]
Cc1ccc(NN2C(=O)C=C(c3ccccc3)C2=O)cc1 |  | 12.6 µM [falling, partial curve]
Cc1ccccc1Cn1nc(C)c(NC(=O)c2noc3c2CCc2ccccc2-3)c1C |  | 11.2 µM [rising, partial curve]
N[C@H](C(=O)O)[C@H]1C[C@@H]1C(=O)O |  | 0.002 µM [falling, full curve, poor fit]
CC[C@H](C)C(=O)O[C@@H]1C[C@H](C)C=C2C=C[C@H](C)[C@@H](CC[C@H]3C[C@@H](O)CC(=O)O3)[C@H]21 | 1.12 µM [falling, single point] | 1.41 µM [falling, full curve, poor fit]

Structure (SMILES) | AC50 [1] | AC50 [2]
CCOC(=O)c1c(N)nn(C(=O)c2ccccc2F)c1-c1ccc(OC)cc1 | 0.00794 µM [falling, full curve, poor fit] | 0.01 µM [falling, full curve, poor fit]
O=C(N/N=C/c1ccc([N+](=O)[O-])o1)C1CC1 |  | 15.8 µM [rising, partial curve, poor fit]
CC1(C)SC(=S)N(/N=C/c2ccccc2)C1N(O)C(=O)Nc1ccc([N+](=O)[O-])cc1 (stereo unspecified) | 11.2 µM [falling, single point] | 
COc1ccc(N=C2SC(C(=O)Nc3ccc4c(c3)OCO4)CC(=O)N2C)cc1 (stereo unspecified) |  | 35.5 µM [rising, single point]
Cc1ccc(Cn2nnnc2CN2CCC(NC(=O)c3ccc(Br)cc3)CC2)cc1 |  | 22.4 µM [rising, single point]
C/C(=N\OCC(=O)Nn1c(C)nc2ccccc2c1=O)c1ccccc1 | 11.2 µM [rising, partial curve, poor fit] | 
Clc1ccc(-n2ncc3c(NCc4ccco4)ncnc32)cc1 | 15.8 µM [rising, single point] | 22.4 µM [rising, single point]
COc1cc(C(=O)Nc2ccc(N(C)C)cc2)c([N+](=O)[O-])cc1OC |  | 35.5 µM [rising, single point]
Cc1ccc(NC(=O)CN2C(=O)N/C(=C\c3cccnc3)C2=O)cc1 | 5.62 µM [falling, single point] | 
COc1ccc(Cc2nnc(N/N=C/c3ccc(O)cc3)[nH]c2=O)cc1OC |  | 12.6 µM [rising, partial curve]
CCC(=O)N1CCc2cc(S(=O)(=O)NCCC(=O)NC3CCCc4ccccc43)ccc21 (stereo unspecified) | 10 µM [rising, partial curve] | 11.2 µM [rising, partial curve, poor fit]
COc1ccc(C(=O)OCC(=O)Nc2ccc(Cl)c(C(F)(F)F)c2)c(OC)c1OC | 17.8 µM [rising, single point] | 35.5 µM [rising, single point]
COC(=O)C(N)Cc1ccc(Cl)cc1 (stereo unspecified) | 35.5 µM [falling, single point] | 
Cc1ccc(CNCc2cccnc2)s1 | 0.00447 µM [falling, full curve, poor fit] | 0.0251 µM [falling, full curve, poor fit]
CCOC(=O)/C=C(\C)Sc1cc(=O)oc2ccccc12 | 12.6 µM [falling, partial curve] | 35.5 µM [falling, single point]
O=C(CSc1nc(=O)n(Cc2ccco2)c2c1CCC2)NCc1ccccc1Cl |  | 10 µM [rising, partial curve, poor fit]
CC(C)(C)c1cc(C(=O)N/N=C/c2ccccc2O)n(-c2ccccc2)n1 | 3.16 µM [rising, full curve] | 7.94 µM [rising, partial curve]
Cc1cc(N2CCCCC2)nc(SCc2ccc(C#N)cc2)n1 | 5.01 µM [rising, partial curve] | 11.2 µM [rising, partial curve]
O=C(C1CCCN(S(=O)(=O)c2ccc(Br)s2)C1)N1CCCCCC1 (stereo unspecified) | 3.16 µM [rising, full curve, poor fit] | 12.6 µM [rising, partial curve]
Cc1nc2ccn(Cc3cccnc3)c(=O)c2cc1C(=O)NCc1ccc(Cl)cc1 | 2.82 µM [rising, full curve, poor fit] | 
COc1ccc(C(=O)N/N=C/c2ccc(OC)c(OS(=O)(=O)c3ccccc3)c2)cc1 |  | 3.55 µM [rising, partial curve]
O=C(N/N=C/c1ccc[nH]1)c1cccnc1 |  | 0.398 µM [falling, partial curve]
COc1ccc(C(=O)Nc2ccc3c(c2)N(C2CCCC2)C(=O)c2ccccc2S3)cc1OC |  | 4.47 µM [rising, full curve, poor fit]
Cc1ccccc1CNC(=O)CCCn1c(=O)c2cccn2c2ccccc21 | 3.16 µM [rising, partial curve] | 
O=C(NCCc1ccccc1)C(=O)NCC(c1cccnc1)N1CCN(c2ccccc2)CC1 (stereo unspecified) |  | 6.31 µM [falling, full curve, poor fit]
Cc1ccc(-c2nc3sc4c(c3c(=O)n2N)CCCC4)cc1 |  | 11.2 µM [rising, single point]
C/C(=N\Nc1nc(N)cc(Cl)n1)c1cccc(N)c1 | 0.708 µM [rising, single point] | 

4 structures from above, ordered by molecular weight, rising.
Structure (SMILES) | AC50 [1] | AC50 [2]
COC(=O)C(N)Cc1ccc(Cl)cc1 (stereo unspecified) | 35.5 µM [falling, single point] | 
Clc1ccc(-n2ncc3c(NCc4ccco4)ncnc32)cc1 | 15.8 µM [rising, single point] | 22.4 µM [rising, single point]
Cc1ccccc1CNC(=O)CCCn1c(=O)c2cccn2c2ccccc21 | 3.16 µM [rising, partial curve] | 
O=C(CSc1nc(=O)n(Cc2ccco2)c2c1CCC2)NCc1ccccc1Cl |  | 10 µM [rising, partial curve, poor fit]

Source: PubChem BioAssay AID1487 (National Center for Advancing Translational Sciences (NCATS), 2009)
